# Measurements reported in paper PMC4337728.
# Sequences of proteins named here, by UniProt entry; tags and fusion partners are left off.
# UniProt P10415: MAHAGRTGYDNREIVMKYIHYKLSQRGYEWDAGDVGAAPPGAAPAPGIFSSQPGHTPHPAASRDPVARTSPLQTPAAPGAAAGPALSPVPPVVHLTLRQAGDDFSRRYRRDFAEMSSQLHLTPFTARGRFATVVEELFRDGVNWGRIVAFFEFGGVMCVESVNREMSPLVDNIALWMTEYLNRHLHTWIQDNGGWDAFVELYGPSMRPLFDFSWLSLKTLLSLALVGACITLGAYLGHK
# Results are given in words; binding and its absence hold for the method and conditions named. In cells and extracts the contact can be indirect. Some entries that bind do so weakly or less than the wild type.
# Key:
# [1] = biological target: Beclin 1 (endogenous, HeLa) (human (endogenous in HeLa)) (UniProt Q14457); assay: co-IP; HeLa/BCL2 cells 2 hr after starvation in HBSS; precipitation with polyclonal rabbit anti-Beclin 1, BCL2 probed with a monoclonal HRP antibody
# [2] = biological target: Beclin 1 (endogenous, HeLa) (human (endogenous in HeLa)) (UniProt Q14457); assay: co-IP; HeLa/BCL2 cells before and early in a time course of starvation in HBSS; precipitation with polyclonal rabbit anti-Beclin 1, BCL2 probed with a monoclonal HRP antibody
substance,measurement,setting,value
"Myc-BCL2, wild-type (from UniProt P10415 1-239)",binding,[1],no binding (condition: 2 hr after starvation in HBSS)
same,binding,[2],binds
